The values below come from PMC8431560.

Amino acid sequences for entries named in this document (tags omitted).
UniProt P35133: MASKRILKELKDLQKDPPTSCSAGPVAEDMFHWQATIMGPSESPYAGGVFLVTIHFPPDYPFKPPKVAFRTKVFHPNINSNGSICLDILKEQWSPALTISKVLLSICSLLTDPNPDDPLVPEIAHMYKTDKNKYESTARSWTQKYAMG
UniProt Q94F47: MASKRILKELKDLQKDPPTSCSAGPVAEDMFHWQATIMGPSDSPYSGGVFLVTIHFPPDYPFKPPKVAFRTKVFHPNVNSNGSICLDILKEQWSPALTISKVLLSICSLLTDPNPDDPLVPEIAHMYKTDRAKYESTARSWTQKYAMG
UniProt Q9SLE4: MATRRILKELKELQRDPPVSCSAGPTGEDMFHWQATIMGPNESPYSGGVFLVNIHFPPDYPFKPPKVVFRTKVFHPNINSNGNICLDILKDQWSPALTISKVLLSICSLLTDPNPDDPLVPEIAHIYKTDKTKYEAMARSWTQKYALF
UniProt Q9FKT3: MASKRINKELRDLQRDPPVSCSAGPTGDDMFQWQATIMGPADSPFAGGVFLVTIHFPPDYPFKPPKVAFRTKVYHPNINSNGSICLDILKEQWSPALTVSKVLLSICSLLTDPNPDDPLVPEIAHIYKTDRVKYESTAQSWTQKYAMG

These are yes or no findings as the source states them, for the method shown. In cells and extracts the contact can be indirect. Some binding calls cover weakened binding; strength is not graded here. Tags and fused reporters may be left off the sequences shown.

The assay concerns the target T1, SAUL1, C-terminally tagged BiFC construct (Arabidopsis thaliana) (UniProt Q9LM76).
T1 sequence: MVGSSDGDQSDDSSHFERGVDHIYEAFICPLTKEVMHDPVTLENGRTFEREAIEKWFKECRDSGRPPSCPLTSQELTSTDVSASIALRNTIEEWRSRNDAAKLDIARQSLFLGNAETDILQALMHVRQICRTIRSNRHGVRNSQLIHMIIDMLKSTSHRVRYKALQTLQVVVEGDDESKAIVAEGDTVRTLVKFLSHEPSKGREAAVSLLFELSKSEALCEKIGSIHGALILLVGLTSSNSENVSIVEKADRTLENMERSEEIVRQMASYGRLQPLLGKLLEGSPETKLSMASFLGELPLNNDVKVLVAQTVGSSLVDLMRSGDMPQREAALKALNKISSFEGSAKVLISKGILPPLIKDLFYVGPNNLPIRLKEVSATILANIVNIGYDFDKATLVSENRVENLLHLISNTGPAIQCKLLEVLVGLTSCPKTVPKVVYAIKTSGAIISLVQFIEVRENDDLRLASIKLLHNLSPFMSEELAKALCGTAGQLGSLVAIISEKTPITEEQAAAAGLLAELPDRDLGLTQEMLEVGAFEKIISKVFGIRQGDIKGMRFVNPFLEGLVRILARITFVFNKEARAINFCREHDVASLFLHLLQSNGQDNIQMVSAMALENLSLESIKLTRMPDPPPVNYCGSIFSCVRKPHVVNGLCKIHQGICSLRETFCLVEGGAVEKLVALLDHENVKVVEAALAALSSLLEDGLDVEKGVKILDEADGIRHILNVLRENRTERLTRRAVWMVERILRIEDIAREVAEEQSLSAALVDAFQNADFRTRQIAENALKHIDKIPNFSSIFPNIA
The assay is described as follows: split reporter; BiFC (YFP) in Arabidopsis mesophyll protoplasts, confocal microscopy; SAUL1 tagged C-terminally, UBCs tagged N-terminally; n = 100 protoplasts for each UBC.
Regarding “UBC10, N-terminally tagged BiFC construct (from UniProt P35133 1-148) (enzyme)”, the binding result is “binds”.

Turning to “UBC28, N-terminally tagged BiFC construct (from UniProt Q94F47 1-148) (enzyme)”, the binding entry is “binds”.

For “UBC29, N-terminally tagged BiFC construct (from UniProt Q9SLE4 1-148) (enzyme)”, the binding result is “binds”.

As to “UBC30, N-terminally tagged BiFC construct (from UniProt Q9FKT3 1-148) (enzyme)”, the binding result is “binds”.
